From the supplement of paper PMC10849652
The list shows a part of the results.

The chains behind the UniProt entries cited, without tags or fusion partners. Where a name states a change or a piece, a line headed by the entry shows the natural chain unless it says otherwise.
UniProt Q9BTF0: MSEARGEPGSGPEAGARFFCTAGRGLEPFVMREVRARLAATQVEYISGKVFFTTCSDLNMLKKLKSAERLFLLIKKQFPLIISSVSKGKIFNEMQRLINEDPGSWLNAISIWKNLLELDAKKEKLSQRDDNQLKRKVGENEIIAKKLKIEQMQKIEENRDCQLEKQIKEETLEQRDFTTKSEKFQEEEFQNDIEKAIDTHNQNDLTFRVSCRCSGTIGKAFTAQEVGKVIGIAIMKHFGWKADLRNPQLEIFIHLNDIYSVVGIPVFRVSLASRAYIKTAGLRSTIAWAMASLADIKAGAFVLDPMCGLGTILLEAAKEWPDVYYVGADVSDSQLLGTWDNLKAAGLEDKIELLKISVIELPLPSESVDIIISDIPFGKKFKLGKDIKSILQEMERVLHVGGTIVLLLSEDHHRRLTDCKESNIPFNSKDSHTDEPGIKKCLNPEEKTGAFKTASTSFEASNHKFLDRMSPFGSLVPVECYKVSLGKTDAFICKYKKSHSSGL
UniProt O75663: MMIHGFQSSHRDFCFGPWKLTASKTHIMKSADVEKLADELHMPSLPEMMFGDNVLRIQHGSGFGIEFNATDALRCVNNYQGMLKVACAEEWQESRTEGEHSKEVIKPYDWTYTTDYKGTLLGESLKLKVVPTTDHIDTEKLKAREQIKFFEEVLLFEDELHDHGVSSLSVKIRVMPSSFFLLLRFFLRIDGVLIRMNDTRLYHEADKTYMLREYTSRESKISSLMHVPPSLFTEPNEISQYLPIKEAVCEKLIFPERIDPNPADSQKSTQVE
UniProt Q9Y5J7: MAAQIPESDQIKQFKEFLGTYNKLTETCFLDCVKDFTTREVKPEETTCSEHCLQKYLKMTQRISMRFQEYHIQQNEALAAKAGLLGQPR
UniProt Q9BV44: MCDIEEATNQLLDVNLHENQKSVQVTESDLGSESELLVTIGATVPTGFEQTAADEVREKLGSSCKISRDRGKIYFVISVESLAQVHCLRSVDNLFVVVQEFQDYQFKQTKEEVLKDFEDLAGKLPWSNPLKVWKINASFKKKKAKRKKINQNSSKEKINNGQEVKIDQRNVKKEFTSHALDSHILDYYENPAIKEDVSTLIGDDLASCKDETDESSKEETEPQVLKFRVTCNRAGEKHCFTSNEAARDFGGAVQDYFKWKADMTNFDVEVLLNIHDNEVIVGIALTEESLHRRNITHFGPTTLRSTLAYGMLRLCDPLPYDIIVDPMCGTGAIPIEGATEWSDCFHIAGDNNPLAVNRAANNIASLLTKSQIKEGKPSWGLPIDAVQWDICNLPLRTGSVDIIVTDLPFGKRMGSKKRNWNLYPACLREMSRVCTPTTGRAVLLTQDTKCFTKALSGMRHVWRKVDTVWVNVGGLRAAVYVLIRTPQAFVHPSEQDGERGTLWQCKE
UniProt Q99595: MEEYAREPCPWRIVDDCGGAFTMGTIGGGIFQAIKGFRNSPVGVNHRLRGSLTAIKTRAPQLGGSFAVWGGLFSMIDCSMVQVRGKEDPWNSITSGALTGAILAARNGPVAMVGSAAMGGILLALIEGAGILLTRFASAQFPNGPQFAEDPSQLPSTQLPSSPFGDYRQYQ
UniProt Q9HC07: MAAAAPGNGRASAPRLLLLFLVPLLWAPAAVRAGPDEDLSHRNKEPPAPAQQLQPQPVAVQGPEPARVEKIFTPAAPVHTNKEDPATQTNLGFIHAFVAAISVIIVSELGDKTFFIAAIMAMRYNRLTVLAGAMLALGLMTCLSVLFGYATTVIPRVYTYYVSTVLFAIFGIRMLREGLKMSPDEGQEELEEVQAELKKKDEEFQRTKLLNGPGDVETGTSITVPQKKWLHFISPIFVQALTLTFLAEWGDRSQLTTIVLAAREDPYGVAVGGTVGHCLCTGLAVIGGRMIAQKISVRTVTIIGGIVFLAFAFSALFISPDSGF
UniProt Q5U3C3: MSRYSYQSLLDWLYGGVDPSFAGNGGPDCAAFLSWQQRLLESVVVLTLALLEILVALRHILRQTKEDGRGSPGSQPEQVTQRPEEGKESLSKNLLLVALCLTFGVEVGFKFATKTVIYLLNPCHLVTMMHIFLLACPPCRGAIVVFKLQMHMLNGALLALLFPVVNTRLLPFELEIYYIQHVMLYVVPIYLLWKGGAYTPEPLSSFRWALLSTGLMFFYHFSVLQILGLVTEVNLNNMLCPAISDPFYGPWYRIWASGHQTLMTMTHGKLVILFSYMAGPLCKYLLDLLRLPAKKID
UniProt Q04726: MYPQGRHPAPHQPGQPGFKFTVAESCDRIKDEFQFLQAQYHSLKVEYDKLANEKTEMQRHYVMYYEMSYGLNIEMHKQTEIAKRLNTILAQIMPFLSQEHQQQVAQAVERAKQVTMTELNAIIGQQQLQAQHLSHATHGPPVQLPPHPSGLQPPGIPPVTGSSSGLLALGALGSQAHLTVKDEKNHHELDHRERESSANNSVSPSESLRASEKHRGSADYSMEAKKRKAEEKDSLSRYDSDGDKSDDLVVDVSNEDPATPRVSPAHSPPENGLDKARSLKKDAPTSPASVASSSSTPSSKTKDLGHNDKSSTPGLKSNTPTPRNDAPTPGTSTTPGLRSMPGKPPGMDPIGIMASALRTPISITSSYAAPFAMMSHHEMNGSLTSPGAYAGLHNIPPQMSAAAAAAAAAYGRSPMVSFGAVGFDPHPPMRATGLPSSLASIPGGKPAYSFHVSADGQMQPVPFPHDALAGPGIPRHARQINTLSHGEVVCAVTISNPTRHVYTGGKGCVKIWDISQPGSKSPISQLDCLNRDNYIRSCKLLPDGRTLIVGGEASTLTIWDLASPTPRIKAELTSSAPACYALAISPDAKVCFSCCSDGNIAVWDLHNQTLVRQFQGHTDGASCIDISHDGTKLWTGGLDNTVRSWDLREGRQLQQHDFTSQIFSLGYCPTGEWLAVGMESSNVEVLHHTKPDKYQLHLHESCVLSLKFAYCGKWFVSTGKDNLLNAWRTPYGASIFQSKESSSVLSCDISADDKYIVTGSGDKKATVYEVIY
UniProt O43422: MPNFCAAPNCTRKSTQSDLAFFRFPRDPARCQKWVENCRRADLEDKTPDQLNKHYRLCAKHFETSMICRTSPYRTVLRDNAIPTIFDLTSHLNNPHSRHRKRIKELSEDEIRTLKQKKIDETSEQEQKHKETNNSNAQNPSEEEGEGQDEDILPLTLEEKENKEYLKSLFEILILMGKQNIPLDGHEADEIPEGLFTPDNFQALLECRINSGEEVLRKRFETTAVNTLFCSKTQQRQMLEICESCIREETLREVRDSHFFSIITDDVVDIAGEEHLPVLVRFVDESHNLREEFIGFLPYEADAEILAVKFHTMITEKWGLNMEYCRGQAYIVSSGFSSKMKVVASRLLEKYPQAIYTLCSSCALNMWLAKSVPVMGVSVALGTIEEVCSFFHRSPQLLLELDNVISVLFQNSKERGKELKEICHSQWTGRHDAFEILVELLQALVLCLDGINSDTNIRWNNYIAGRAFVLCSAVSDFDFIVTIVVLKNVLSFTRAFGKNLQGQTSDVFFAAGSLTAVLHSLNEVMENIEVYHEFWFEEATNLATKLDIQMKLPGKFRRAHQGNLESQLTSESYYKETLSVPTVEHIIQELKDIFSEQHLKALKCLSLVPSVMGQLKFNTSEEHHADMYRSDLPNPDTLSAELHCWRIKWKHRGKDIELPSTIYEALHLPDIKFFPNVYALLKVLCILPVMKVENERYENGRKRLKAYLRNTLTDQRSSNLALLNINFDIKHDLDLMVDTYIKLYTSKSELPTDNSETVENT
UniProt Q86W42: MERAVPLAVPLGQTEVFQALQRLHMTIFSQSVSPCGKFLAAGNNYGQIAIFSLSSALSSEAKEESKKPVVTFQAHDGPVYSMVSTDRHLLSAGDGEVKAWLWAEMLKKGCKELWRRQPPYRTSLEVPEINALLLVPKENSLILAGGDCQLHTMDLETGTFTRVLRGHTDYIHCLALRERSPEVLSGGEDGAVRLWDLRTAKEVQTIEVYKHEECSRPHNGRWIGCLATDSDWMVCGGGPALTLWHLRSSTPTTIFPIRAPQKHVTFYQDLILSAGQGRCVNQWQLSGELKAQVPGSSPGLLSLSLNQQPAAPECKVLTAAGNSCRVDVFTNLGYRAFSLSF
UniProt Q13769: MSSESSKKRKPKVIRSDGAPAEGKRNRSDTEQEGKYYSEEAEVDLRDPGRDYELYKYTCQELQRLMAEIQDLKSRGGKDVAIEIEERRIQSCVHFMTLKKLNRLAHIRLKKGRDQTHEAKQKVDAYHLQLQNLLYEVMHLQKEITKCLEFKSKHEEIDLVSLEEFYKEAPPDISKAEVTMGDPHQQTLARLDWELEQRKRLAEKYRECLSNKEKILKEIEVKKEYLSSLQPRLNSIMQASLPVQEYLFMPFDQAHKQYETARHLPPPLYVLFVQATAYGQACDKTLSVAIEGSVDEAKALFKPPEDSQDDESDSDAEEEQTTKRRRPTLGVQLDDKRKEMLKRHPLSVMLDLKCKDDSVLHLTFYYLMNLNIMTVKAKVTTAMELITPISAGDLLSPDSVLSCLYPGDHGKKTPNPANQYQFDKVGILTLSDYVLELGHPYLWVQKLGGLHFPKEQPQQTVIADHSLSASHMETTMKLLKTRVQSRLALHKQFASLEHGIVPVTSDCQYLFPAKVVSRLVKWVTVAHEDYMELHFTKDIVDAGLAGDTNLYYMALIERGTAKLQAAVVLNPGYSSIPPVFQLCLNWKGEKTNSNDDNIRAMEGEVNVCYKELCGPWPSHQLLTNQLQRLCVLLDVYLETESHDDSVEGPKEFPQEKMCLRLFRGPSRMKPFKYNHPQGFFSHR
UniProt Q9UDY2: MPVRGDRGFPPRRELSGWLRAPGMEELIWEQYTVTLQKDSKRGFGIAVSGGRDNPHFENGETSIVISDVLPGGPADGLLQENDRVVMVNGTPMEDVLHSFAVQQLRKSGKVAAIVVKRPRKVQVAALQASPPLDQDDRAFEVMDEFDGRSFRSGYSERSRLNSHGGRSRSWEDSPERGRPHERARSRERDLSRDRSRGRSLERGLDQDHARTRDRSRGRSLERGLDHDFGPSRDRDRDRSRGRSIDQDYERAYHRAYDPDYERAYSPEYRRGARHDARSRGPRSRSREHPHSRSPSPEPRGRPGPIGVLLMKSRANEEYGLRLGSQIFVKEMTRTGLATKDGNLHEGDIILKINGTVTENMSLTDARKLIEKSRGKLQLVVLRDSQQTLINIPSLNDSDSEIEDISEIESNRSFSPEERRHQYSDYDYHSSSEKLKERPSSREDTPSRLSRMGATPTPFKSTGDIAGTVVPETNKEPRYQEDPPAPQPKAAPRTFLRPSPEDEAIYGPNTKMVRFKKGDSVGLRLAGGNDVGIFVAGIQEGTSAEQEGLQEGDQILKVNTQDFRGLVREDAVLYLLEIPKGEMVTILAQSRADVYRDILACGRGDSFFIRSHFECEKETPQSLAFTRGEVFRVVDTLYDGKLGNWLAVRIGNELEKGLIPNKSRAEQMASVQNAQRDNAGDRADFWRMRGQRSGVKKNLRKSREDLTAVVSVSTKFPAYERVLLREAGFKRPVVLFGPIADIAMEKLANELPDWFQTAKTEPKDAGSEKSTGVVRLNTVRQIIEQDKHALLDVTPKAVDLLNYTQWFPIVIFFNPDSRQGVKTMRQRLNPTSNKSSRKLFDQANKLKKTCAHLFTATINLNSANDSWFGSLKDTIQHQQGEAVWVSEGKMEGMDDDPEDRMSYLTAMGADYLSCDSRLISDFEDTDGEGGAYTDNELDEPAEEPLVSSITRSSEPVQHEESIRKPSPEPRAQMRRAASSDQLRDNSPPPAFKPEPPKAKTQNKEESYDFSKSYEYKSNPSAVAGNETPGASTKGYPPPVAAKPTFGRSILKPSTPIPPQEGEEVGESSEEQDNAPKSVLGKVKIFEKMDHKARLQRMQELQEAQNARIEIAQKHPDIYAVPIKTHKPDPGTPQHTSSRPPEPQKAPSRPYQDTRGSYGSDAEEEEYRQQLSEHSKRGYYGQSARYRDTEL
UniProt Q9NX61: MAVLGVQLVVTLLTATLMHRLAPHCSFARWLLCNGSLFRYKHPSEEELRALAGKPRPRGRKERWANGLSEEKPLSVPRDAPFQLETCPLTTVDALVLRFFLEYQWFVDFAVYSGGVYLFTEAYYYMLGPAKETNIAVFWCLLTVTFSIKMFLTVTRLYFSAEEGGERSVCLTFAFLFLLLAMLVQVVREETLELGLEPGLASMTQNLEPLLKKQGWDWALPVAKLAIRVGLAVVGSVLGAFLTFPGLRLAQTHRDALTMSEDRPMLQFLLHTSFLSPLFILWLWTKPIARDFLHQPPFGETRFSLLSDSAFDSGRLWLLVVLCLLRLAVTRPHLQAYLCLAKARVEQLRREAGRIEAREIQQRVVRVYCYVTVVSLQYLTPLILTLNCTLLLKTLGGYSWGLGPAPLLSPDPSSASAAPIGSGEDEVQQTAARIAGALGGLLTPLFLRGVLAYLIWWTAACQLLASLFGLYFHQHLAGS

What was measured:
Assay in all cases: log2 fold change, soluble protein after heating vs DMSO (PISA); higher = thermal stabilisation; K562 lysate, 10 uM; active = over 0.2 and 3.5 SD of the protein, either way, in both replicates (recomputed)
[1] = compound: CCCS(=O)(=O)Nc1ccc(F)c(C(=O)c2c[nH]c3ncc(-c4ccc(Cl)cc4)cc23)c1F [vemurafenib]
Method in brief: (§1)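 Thermal stability, expressed as log-two fold change relative to solvent controls, is given from duplicates. Crude K562 extract in PBS pH 7.4 with 1 mM MgCl2, at 1 mg/mL protein, was treated with 10 μM compound for 30 min and heated in aliquots for 3 min across 48°C-58°C. After pooling, adjustment to 0.5% NP-40 at 4°C and centrifugation at 21,000xg for 90 min, supernatant protein was measured by TMTpro 16plex LC-MS/MS with channel sums equalised.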

[2] = compound: CCCS(=O)(=O)Nc1ccc(F)c(C(=O)c2c[nH]c3ncc(Cl)cc23)c1F
Method in brief: as §1

[3] = compound: CCN(CCCOc1ccc2c(Nc3cc(CC(=O)Nc4cccc(F)c4)[nH]n3)ncnc2c1)CCOP(=O)(O)O [barasertib]
Method in brief: as §1

[4] = compound: CC[C@@H]1C(=O)N(C)c2cnc(Nc3ccc(C(=O)NC4CCN(C)CC4)cc3OC)nc2N1C1CCCC1
Method in brief: as §1

[5] = compound: CC[C@@H]1C(=O)N(C)c2cnc(Nc3ccc(C(=O)N[C@H]4CC[C@H](N5CCN(CC6CC6)CC5)CC4)cc3OC)nc2N1C(C)C [volasertib]
Method in brief: as §1

[6] = compound: CCn1c(C(=O)N(C2CC2)C2CC2)cc2c3c(ncn3C)c(Nc3cc(C)n(C)n3)nc21
Method in brief: as §1

[7] = compound: CCn1cc(-c2ccnc3[nH]c(-c4cccc(CN(C)C)c4)cc23)c(-c2ccc(NC(=O)N(C)C)cc2)n1
Method in brief: as §1

[8] = compound: CN1CCC(CNc2ccc3ncc(-c4cccc(OC(F)(F)F)c4)n3n2)CC1
Method in brief: as §1

[9] = compound: CN1CCN(CCOc2cc(OC3CCOCC3)c3c(Nc4c(Cl)ccc5c4OCO5)ncnc3c2)CC1 [saracatinib]
Method in brief: as §1

[10] = compound: CN1CCN(c2nc(C3=C(c4c[nH]c5ccccc45)C(=O)NC3=O)c3ccccc3n2)CC1 [sotrastaurin]
Method in brief: as §1

[11] = compound: CN1CC[C@H](c2c(O)cc(O)c3c(=O)cc(-c4ccccc4Cl)oc23)[C@H](O)C1 [alvocidib]
Method in brief: as §1

[12] = compound: CN1CCc2c(c3ccccc3n2Cc2ccc(C(=O)NO)cc2)C1 [Tubastatin A]
Method in brief: as §1

[13] = compound: CNC(=O)C1=CC=CC=C1NC2=NC(=NC=C2Cl)NC3=C(C=C(C=C3)N4CCOCC4)OC
Method in brief: as §1

[14] = compound: CNC(=O)c1ccc(Nc2ncc(C(F)(F)F)c(NCc3nccnc3N(C)S(C)(=O)=O)n2)cc1 [defactinib]
Method in brief: as §1

[15] = compound: CNc1nc(-c2ccc3c(N)n[nH]c3c2)cc(N2C[C@@H](C(=O)NC3CCCCC3)CC[C@H]2C)n1
Method in brief: as §1

[16] = compound: COC(=O)N[C@@H](C)CNc1nccc(-c2cn(C(C)C)nc2-c2cc(Cl)cc(NS(C)(=O)=O)c2F)n1 [encorafenib]
Method in brief: as §1

[17] = compound: COC(=O)[C@H](CCSC)NC(=O)C1=C(C=C(C=C1)NC[C@H](CS)N)C2=CC=CC=C2
Method in brief: as §1

[18] = compound: COc1cc(Nc2ncc3c(n2)-c2ccc(Cl)cc2C(c2c(F)cccc2OC)=NC3)ccc1C(=O)O [alisertib]
Method in brief: as §1

[19] = compound: COc1cc2nc(-c3cc(F)ccc3O)nc(N[C@@H]3CNC[C@H]3C(C)(C)O)c2cc1OC
Method in brief: as §1

[20] = compound: COc1cc2ncnc(Nc3ccc(F)c(Cl)c3)c2cc1OCCCN1CCOCC1 [gefitinib]
Method in brief: as §1

Target	log2 fold change [1]	log2 fold change [2]	log2 fold change [3]	log2 fold change [4]	log2 fold change [5]	log2 fold change [6]	log2 fold change [7]	log2 fold change [8]	log2 fold change [9]	log2 fold change [10]	log2 fold change [11]	log2 fold change [12]	log2 fold change [13]	log2 fold change [14]	log2 fold change [15]	log2 fold change [16]	log2 fold change [17]	log2 fold change [18]	log2 fold change [19]	log2 fold change [20]
THUMPD2 (UniProt Q9BTF0)	inactive: -0.001	inactive: 0.025	inactive: -0.006	inactive: 0.022	inactive: -0.023	inactive: 0.006	inactive: -0.098	inactive: 0.089	inactive: 0.062	inactive: 0.054	inactive: 0.01	inactive: 0.011	inactive: -0.012	inactive: -0.016	inactive: 0.056	inactive: -0.001	inactive: 0.006	inactive: -0.057	inactive: 0.045	inactive: 0.007
TIPRL (UniProt O75663)	inactive: -0.02	inactive: 0.021	inactive: 0.017	inactive: -0.036	inactive: -0.014	inactive: 0.014	inactive: -0.047	inactive: 0.024	inactive: 0.002	inactive: -0.023	inactive: -0.026	inactive: 0.006	inactive: -0.021	inactive: -0.016	inactive: 0.033	inactive: 0.011	inactive: -0.115	inactive: 0.001	inactive: -0.021	inactive: 0
TIMM9 (UniProt Q9Y5J7)	inactive: 0.034	inactive: -0.034	inactive: 0.191	inactive: 0.004	inactive: 0.09	inactive: 0.028	inactive: 0.087	inactive: -0.139	inactive: 0.004	inactive: -0.061	inactive: 0.087	inactive: 0.096	inactive: 0.092	inactive: 0.141	inactive: 0.024	inactive: -0.026	inactive: -0.166	inactive: 0.056	inactive: -0.011	inactive: -0.122
THUMPD3 (UniProt Q9BV44)	inactive: 0.01	inactive: 0.019	inactive: -0.012	inactive: 0.047	inactive: 0.032	inactive: -0.032	inactive: 0.022	inactive: 0.015	inactive: -0.014	inactive: -0.001	inactive: -0.025	inactive: 0.012	inactive: 0.034	inactive: -0.03	inactive: 0.053	inactive: -0.024	inactive: -0.033	inactive: 0.014	inactive: -0.003	inactive: -0.008
TIMM17A (UniProt Q99595)	inactive: 0.038	inactive: -0.065	inactive: 0.026	inactive: 0.03	inactive: -0.017	inactive: 0.059	inactive: -0.076	inactive: 0.066	inactive: -0.035	inactive: 0.029	inactive: -0.058	inactive: 0.052	inactive: -0.081	inactive: -0.029	inactive: 0.06	inactive: 0.019	inactive: 0.022	inactive: -0.005	inactive: 0.02	inactive: 0.013
TGFBRAP1 (UniProt Q8WUH2)	inactive: -0.031	inactive: 0.02	inactive: 0.031	inactive: -0.069	inactive: -0.062	inactive: 0.049	inactive: 0	inactive: -0.075	inactive: 0.005	inactive: -0.001	inactive: -0.026	inactive: -0.153	inactive: 0	inactive: 0.005	inactive: -0.012	inactive: -0.015	inactive: -0.174	inactive: 0.011	inactive: -0.025	inactive: -0.025
TMEM165 (UniProt Q9HC07)	inactive: -0.013	inactive: 0.024	inactive: -0.065	inactive: 0.034	inactive: 0.017	inactive: -0.013	inactive: -0.07	inactive: 0.101	inactive: 0.032	inactive: 0	inactive: -0.02	inactive: -0.013	inactive: 0.006	inactive: 0.025	inactive: 0.009	inactive: 0.03	inactive: -0.042	inactive: -0.043	inactive: -0.002	inactive: -0.017
TMEM164 (UniProt Q5U3C3)	inactive: 0.179	inactive: 0.108	inactive: 0.039	inactive: 0.176	inactive: 0.08	inactive: -0.186	active: -0.827	inactive: 0.262	inactive: 0.062	inactive: -0.084	inactive: -0.393	inactive: 0.05	inactive: -0.039	inactive: 0.007	inactive: 0.333	inactive: -0.107	inactive: 0.185	inactive: -0.075	inactive: 0.021	inactive: -0.063
TLE3 isoform 4 (UniProt Q04726)	inactive: 0.009	inactive: 0.01	inactive: 0.005	inactive: 0.065	inactive: 0.021	inactive: 0.027	inactive: -0.001	inactive: 0.01	inactive: 0.017	inactive: -0.017	inactive: 0.023	inactive: 0.002	inactive: -0.013	inactive: 0.004	inactive: 0.024	inactive: 0.014	inactive: -0.019	inactive: -0.016	inactive: 0.002	inactive: -0.037
THADA (UniProt Q6YHU6)	inactive: -0.006	inactive: 0.007	inactive: 0.038	inactive: -0.028	inactive: -0.037	inactive: 0.019	inactive: -0.029	inactive: 0.02	inactive: 0.029	inactive: 0.037	inactive: -0.002	inactive: -0.165	inactive: 0.008	inactive: 0.014	inactive: -0.013	inactive: 0.022	inactive: 0.031	inactive: 0.01	inactive: 0.012	inactive: 0.001
THAP12 (UniProt O43422)	inactive: 0.01	inactive: 0.007	inactive: 0.042	inactive: -0.003	inactive: -0.064	inactive: 0	inactive: 0.028	inactive: -0.094	inactive: 0.035	inactive: 0.025	inactive: -0.022	inactive: -0.049	inactive: 0.031	inactive: -0.001	inactive: 0.042	inactive: 0.008	inactive: -0.016	inactive: 0.052	inactive: -0.016	inactive: 0.023
THOC6 (UniProt Q86W42)	inactive: 0.023	inactive: 0.014	inactive: 0.098	inactive: 0.03	inactive: -0.047	inactive: -0.021	inactive: -0.057	inactive: 0.005	inactive: -0.009	inactive: -0.025	inactive: -0.02	inactive: 0.013	inactive: -0.013	inactive: -0.041	inactive: 0.017	inactive: -0.027	inactive: 0.161	inactive: 0.013	inactive: 0.01	inactive: 0.01
THOC5 (UniProt Q13769)	inactive: 0.005	inactive: 0.013	inactive: -0.023	inactive: -0.031	inactive: -0.008	inactive: 0.008	inactive: 0.02	inactive: -0.008	inactive: 0.024	inactive: 0.013	inactive: -0.027	inactive: -0.025	inactive: -0.021	inactive: -0.008	inactive: -0.016	inactive: 0.005	inactive: 0.062	inactive: 0.059	inactive: 0.006	inactive: -0.018
TJP2 isoform 7 (UniProt Q9UDY2)	inactive: 0.058	inactive: 0.045	inactive: 0.029	inactive: -0.022	inactive: -0.063	inactive: -0.008	inactive: -0.024	inactive: -0.05	inactive: 0.019	inactive: 0.025	inactive: -0.019	inactive: -0.014	inactive: -0.021	inactive: -0.007	inactive: -0.008	inactive: 0.045	inactive: 0.058	inactive: -0.028	inactive: -0.015	inactive: -0.029
TMEM161A (UniProt Q9NX61)	inactive: -0.164	inactive: 0.109	inactive: 0.095	inactive: -0.005	inactive: 0.024	inactive: -0.02	inactive: 0.107	inactive: -0.298	inactive: -0.018	inactive: 0.01	inactive: -0.018	inactive: -0.093	inactive: 0.061	inactive: 0.073	inactive: -0.089	inactive: 0.054	inactive: -0.176	inactive: 0.141	inactive: -0.098	inactive: -0.047

Complete entries, quoted from the list. Order of values: log2 fold change [1] | log2 fold change [2] | log2 fold change [3] | log2 fold change [4] | log2 fold change [5] | log2 fold change [6] | log2 fold change [7] | log2 fold change [8] | log2 fold change [9] | log2 fold change [10] | log2 fold change [11] | log2 fold change [12] | log2 fold change [13] | log2 fold change [14] | log2 fold change [15] | log2 fold change [16] | log2 fold change [17] | log2 fold change [18] | log2 fold change [19] | log2 fold change [20]
THOC6 (UniProt Q86W42) as listed: inactive: 0.023 | inactive: 0.014 | inactive: 0.098 | inactive: 0.03 | inactive: -0.047 | inactive: -0.021 | inactive: -0.057 | inactive: 0.005 | inactive: -0.009 | inactive: -0.025 | inactive: -0.02 | inactive: 0.013 | inactive: -0.013 | inactive: -0.041 | inactive: 0.017 | inactive: -0.027 | inactive: 0.161 | inactive: 0.013 | inactive: 0.01 | inactive: 0.01
TIMM17A (UniProt Q99595) as listed: inactive: 0.038 | inactive: -0.065 | inactive: 0.026 | inactive: 0.03 | inactive: -0.017 | inactive: 0.059 | inactive: -0.076 | inactive: 0.066 | inactive: -0.035 | inactive: 0.029 | inactive: -0.058 | inactive: 0.052 | inactive: -0.081 | inactive: -0.029 | inactive: 0.06 | inactive: 0.019 | inactive: 0.022 | inactive: -0.005 | inactive: 0.02 | inactive: 0.013
